Values from PubChem BioAssay AID1224828 (NIAID, 2016)
This is one part, drawn at random, of about 17,000 deposited reagents. In the full data, 762 (4.5%) are marked active. 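Active calls include both raised and lowered p65 entry, mostly lowered; wells with fewer than 50 cells lack a z-score.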 The raw values are shown without normalisation. Unmarked entries are inactive. The numbers tell different reagents against one gene apart. A reagent listed more than once was tested more than once; the source does not tell the runs apart.

Purpose: 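Find genes required for NF-kappaB p65 moving into the nucleus after LPS in mouse macrophages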 (primary screen)
Cells: mouse RAW264.7 G9 macrophage reporter cells (GFP-p65, Tnf promoter-mCherry)
Knock-down reagent: siRNA pool against mouse genes, 100 nM
Time to read-out: 2 days siRNA transfection, then 40 min LPS before fixation
Conditions: LPS (Salmonella minnesota R595) at 10 ng/ml
Read-out: 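Imaged p65 nuclear translocation ratio, normalised to the plate median, converted to robust z-scores and averaged across two replicates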
Reading the numbers: p65 translocation robust z-score: higher = more nuclear NF-kappaB p65 after LPS than the plate median; nuclear/cytoplasmic p65 ratio: higher = more nuclear NF-kappaB p65
Active means: 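Active if robust z is above 3.3 (negative regulators) or below -1.56, the Tlr4 control median (positive regulators); activity score 50 or more; control wells not called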
Calls: active = hit (p65 shift raised or lowered); inactive = no clear change

gene | reagent | p65 translocation robust z-score | nuclear/cytoplasmic p65 ratio, rep 1 | nuclear/cytoplasmic p65 ratio, rep 2 | low cell count flag
Gm14296 | 1 | -0.92 | 1.24 | 1.2 | enough cells to score
Gm14296 | 2 | – | 1.05 | 1.4 | fewer than 50 cells per well; well left out of scoring
Pls3 | 1 | -0.73 | 1.28 | 1.33 | enough cells to score
Krtap14 | 1 | -0.5 | 1.35 | 1.49 | enough cells to score
A130079P16Rik (retired record) | 1 | – | 1.09 | 1.47 | fewer than 50 cells per well; well left out of scoring
Ttll1 | 1 | 0.93 | 1.66 | 1.33 | enough cells to score
Or13c25 | 1 | – | 1.23 | 1.09 | fewer than 50 cells per well; well left out of scoring
Carhsp1 | 1 | -1.17 | 1.44 | 1.57 | enough cells to score
Entpd1 | 1 | 1.78 | 1.68 | 1.62 | enough cells to score
Eno2 | 1 | 0.06 | 1.54 | 1.32 | enough cells to score
Fgf23 | 1 | -0.17 | 1.35 | 1.41 | enough cells to score
Prss44 | 1 | 0.06 | 1.4 | 1.43 | enough cells to score
Ankrd1 | 1 | -0.71 | 1.51 | 1.52 | enough cells to score
Stx17 | 1 | -0.19 | 1.37 | 1.55 | enough cells to score
Grwd1 | 1 | -0.22 | 1.53 | 1.59 | enough cells to score
Erlec1 | 1 | – | 1.29 | 1.23 | fewer than 50 cells per well; well left out of scoring
Syvn1 | 1 | – | 1.09 | 1.47 | fewer than 50 cells per well; well left out of scoring
Or4g7 | 1 | -0.73 | 1.52 | 1.31 | enough cells to score
Chd2 | 1 | 1.21 | 1.63 | 1.53 | enough cells to score
Trpd52l3 | 1 | -0.25 | 1.51 | 1.35 | enough cells to score
Trpd52l3 | 1 | – | 1.26 | 1.22 | fewer than 50 cells per well; well left out of scoring
Zdhhc15 | 1 | 0.56 | 1.55 | 1.26 | enough cells to score
Ssr1 | 1 | 0.32 | 1.58 | 1.62 | enough cells to score
Nemp2 | 1 | 2.87 | 1.73 | 1.75 | enough cells to score
Rasa1 | 1 | 0.2 | 1.57 | 1.52 | enough cells to score
Slco6b1 | 1 | – | 1.5 | 1.23 | fewer than 50 cells per well; well left out of scoring
Vmn1r229 | 1 | -0.42 | 1.33 | 1.18 | enough cells to score
Prr13 | 1 | -0.1 | 1.43 | 1.52 | enough cells to score
Slco1a1 | 1 | 2.06 | 1.86 | 1.46 | enough cells to score
Slit3 | 1 | -0.13 | 1.45 | 1.55 | enough cells to score
Nfib | 1 | -0.62 | 1.4 | 1.3 | enough cells to score
Nfib | 2 | -0.62 | 1.36 | 1.3 | enough cells to score
Sgk3 | 1 | 0.12 | 1.71 | 1.39 | enough cells to score
Simc1 | 1 | – | 1.29 | 1.1 | fewer than 50 cells per well; well left out of scoring
Hcst | 1 | -2.96 (active) | 0.907 | 1.13 | enough cells to score
Ergic3 | 1 | – | 1.35 | 1.16 | fewer than 50 cells per well; well left out of scoring
Kif20b | 1 | 0.39 | 1.54 | 1.35 | enough cells to score
Cep57l1 | 1 | – | 1.92 | 1.61 | fewer than 50 cells per well; well left out of scoring
Gpr119 | 1 | 0.07 | 1.49 | 1.62 | enough cells to score
Gpr119 | 1 | 0.27 | 1.55 | 1.62 | enough cells to score
Hipk3 | 1 | -0.24 | 1.64 | 1.35 | enough cells to score
Ifna13 | 1 | – | 1.41 | 1.43 | fewer than 50 cells per well; well left out of scoring
Zfp85 | 1 | – | 1.18 | 1.11 | fewer than 50 cells per well; well left out of scoring
Or6z7 | 1 | 0.38 | 1.49 | 1.42 | enough cells to score
Magi1 | 1 | -0.24 | 1.64 | 1.52 | enough cells to score
Vmn2r-ps54 | 1 | -0.69 | 1.24 | 1.17 | enough cells to score
Il1rap | 1 | 0.37 | 1.53 | 1.43 | enough cells to score
Micos13 | 1 | 3.03 | 1.82 | 1.84 | enough cells to score
Cptp | 1 | 0.48 | 1.74 | 1.82 | enough cells to score
Or5b124 | 1 | -0.64 | 1.31 | 1.51 | enough cells to score
Or51a43 | 1 | 0.47 | 1.45 | 1.32 | enough cells to score
Usp12 | 1 | 0.12 | 1.58 | 1.47 | enough cells to score
Wt1 | 1 | -0.15 | 1.51 | 1.47 | enough cells to score
Tfpi2 | 1 | -0.29 | 1.49 | 1.46 | enough cells to score
Hmgn3 | 1 | -0.62 | 1.37 | 1.28 | enough cells to score
Pip4k2a | 1 | -0.24 | 1.66 | 1.34 | enough cells to score
Gm4876 | 1 | 1.49 | 1.64 | 2.1 | enough cells to score
Or6c210 | 1 | – | 1.34 | 1.11 | fewer than 50 cells per well; well left out of scoring
Nrn1l | 1 | 0.94 | 1.8 | 1.53 | enough cells to score
Mageb18 | 1 | 1.13 | 1.63 | 2.17 | enough cells to score
Dmkn | 1 | 0.82 | 1.66 | 1.56 | enough cells to score
Rapgef4 | 1 | 0.65 | 1.33 | 1.67 | enough cells to score
Rapgef4 | 2 | – | 1.51 | 1.34 | fewer than 50 cells per well; well left out of scoring
Acan | 1 | -0.52 | 1.54 | 1.55 | enough cells to score
Cryab | 1 | -1.59 (active) | 1.3 | 1.14 | enough cells to score
Meis2 | 1 | 0.97 | 1.53 | 1.51 | enough cells to score
Maml2 | 1 | 1.69 | 1.43 | 1.69 | enough cells to score
Ntng1 | 1 | 0.31 | 1.6 | 1.72 | enough cells to score
Clgn | 1 | 0.73 | 1.64 | 1.41 | enough cells to score
Etnk2 | 1 | – | 1.66 | 1.19 | fewer than 50 cells per well; well left out of scoring
Csrnp1 | 1 | 0.09 | 1.68 | 1.58 | enough cells to score
A930024E05Rik | 1 | -0.64 | 1.3 | 1.43 | enough cells to score
Akr1c12 | 1 | 0.31 | 1.63 | 1.75 | enough cells to score
Chrng | 1 | -0.72 | 1.4 | 1.26 | enough cells to score
Hecw2 | 1 | 0.04 | 1.43 | 1.53 | enough cells to score

A few values from the entries so far.
Value of Hmgn3 in “nuclear/cytoplasmic p65 ratio, rep 1”: 1.37
Under “low cell count flag”, Csrnp1 shows enough cells to score
Under “p65 translocation robust z-score”, Or4g7 shows -0.73
Value of Nfib #2 in “nuclear/cytoplasmic p65 ratio, rep 1”: 1.36
Under “nuclear/cytoplasmic p65 ratio, rep 1”, Simc1 shows 1.29
Clgn, nuclear/cytoplasmic p65 ratio, rep 2 = 1.41
